Laboratory results: paper PMC9636423
Results are given in words; binding and its absence hold for the method and conditions named. In cells and extracts the contact can be indirect. Some entries that bind do so weakly or less than the wild type. Tags and fused reporters may be left off the sequences shown. Values belong to the binder of their own block, whether it stands above or below them.

Legend:
GFP-SMC5 WT (human) = GFP-SMC5 WT (human) (UniProt Q8IY18); test: co-IP; U-2 OS cells expressing Flag-SLF2 transfected with WT or mutant GFP-SMC5; GFP-SMC5 precipitated from cell extracts with GFP-Trap beads; immunoblot
[1] = target: T1, GFP-SMC5 p.(His990Asp) (human) (UniProt Q8IY18); test: as above
T1 sequence: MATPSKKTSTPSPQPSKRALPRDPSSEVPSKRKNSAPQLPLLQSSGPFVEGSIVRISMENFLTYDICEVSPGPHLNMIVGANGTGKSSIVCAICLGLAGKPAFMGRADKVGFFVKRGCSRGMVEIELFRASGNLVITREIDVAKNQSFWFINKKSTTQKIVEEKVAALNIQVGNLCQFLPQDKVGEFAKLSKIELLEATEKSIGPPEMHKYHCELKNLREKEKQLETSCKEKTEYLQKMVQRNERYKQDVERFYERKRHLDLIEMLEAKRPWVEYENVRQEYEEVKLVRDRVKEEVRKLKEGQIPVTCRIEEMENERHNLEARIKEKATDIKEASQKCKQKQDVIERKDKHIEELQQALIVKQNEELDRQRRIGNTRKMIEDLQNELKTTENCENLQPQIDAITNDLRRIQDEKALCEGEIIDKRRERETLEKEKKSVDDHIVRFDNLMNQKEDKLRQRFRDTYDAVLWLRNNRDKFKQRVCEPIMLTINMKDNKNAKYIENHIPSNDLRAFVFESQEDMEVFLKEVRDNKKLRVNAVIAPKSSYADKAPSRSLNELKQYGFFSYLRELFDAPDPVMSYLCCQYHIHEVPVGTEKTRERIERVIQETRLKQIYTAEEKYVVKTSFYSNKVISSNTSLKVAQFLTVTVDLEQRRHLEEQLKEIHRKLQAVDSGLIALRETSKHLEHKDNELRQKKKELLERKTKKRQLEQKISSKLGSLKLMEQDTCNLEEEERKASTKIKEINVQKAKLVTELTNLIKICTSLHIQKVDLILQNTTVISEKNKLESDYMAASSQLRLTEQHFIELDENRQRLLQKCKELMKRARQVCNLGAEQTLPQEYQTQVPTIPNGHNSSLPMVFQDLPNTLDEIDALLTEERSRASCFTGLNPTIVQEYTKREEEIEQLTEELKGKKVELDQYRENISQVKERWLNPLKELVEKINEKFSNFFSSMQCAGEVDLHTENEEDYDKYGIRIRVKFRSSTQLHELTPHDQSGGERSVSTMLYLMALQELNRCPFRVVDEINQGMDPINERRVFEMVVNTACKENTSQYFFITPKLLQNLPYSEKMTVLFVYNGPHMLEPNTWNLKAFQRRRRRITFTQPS

[2] = target: T2, SLF2 (tagged, full length cDNA in pcDNA4/TO) (human) (UniProt Q8IX21); test: co-IP; tagged proteins in U-2 OS lysates (EBC buffer: 150 mM NaCl, 50 mM Tris pH 7.5, 1 mM EDTA, 0.5% IGEPAL CA-630), precipitated with Strep-Tactin Sepharose, immunoblot; full length SLF2, deletion and minimal binding region constructs
T2 sequence: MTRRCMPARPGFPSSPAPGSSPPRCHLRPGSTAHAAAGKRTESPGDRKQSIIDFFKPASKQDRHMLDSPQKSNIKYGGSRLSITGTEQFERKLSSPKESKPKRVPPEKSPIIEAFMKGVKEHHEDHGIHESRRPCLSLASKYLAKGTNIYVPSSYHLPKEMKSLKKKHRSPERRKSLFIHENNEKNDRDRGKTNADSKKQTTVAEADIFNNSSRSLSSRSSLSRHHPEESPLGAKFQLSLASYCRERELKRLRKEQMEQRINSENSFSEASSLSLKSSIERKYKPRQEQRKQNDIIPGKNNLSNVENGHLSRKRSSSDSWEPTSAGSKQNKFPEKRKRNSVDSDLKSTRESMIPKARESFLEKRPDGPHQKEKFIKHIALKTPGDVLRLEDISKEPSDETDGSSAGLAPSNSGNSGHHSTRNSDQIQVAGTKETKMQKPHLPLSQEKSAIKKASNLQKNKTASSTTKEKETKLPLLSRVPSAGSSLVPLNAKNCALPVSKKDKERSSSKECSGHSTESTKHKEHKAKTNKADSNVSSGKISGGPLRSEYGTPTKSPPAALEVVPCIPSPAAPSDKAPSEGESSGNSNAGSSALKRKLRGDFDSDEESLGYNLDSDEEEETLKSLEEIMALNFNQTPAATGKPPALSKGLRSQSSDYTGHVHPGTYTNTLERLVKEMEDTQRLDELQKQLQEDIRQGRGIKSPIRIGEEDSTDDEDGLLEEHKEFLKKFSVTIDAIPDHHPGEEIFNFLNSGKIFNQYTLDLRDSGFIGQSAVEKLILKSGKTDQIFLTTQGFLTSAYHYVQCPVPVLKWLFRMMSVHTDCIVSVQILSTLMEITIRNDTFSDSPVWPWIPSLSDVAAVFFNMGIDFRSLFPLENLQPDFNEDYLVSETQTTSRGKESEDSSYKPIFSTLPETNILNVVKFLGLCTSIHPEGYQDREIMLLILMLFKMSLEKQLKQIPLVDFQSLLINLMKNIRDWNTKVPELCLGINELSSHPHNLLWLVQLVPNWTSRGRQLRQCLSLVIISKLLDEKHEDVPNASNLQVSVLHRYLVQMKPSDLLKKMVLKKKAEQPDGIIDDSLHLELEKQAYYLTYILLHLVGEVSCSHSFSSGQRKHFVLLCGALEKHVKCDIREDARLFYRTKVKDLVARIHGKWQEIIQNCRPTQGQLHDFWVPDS

B1: NSMCE2 (endogenous, U-2 OS) (protein, UniProt Q96MF7 1-247)
chain: MPGRSSSNSGSTGFISFSGVESALSSLKNFQACINSGMDTASSVALDLVESQTEVSSEYSMDKAMVEFATLDRQLNHYVKAVQSTINHVKEERPEKIPDLKLLVEKKFLALQSKNSDADFQNNEKFVQFKQQLKELKKQCGLQADREADGTEGVDEDIIVTQSQTNFTCPITKEEMKKPVKNKVCGHTYEEDAIVRMIESRQKRKKKAYCPQIGCSHTDIRKSDLIQDEALRRAIENHNKKRHRHSE
binding (GFP-SMC5 WT (human)): binds | binding [1]: binds

B4: Flag-SLF2 (protein, UniProt Q8IX21 1-1173)
chain: MTRRCMPARPGFPSSPAPGSSPPRCHLRPGSTAHAAAGKRTESPGDRKQSIIDFFKPASKQDRHMLDSPQKSNIKYGGSRLSITGTEQFERKLSSPKESKPKRVPPEKSPIIEAFMKGVKEHHEDHGIHESRRPCLSLASKYLAKGTNIYVPSSYHLPKEMKSLKKKHRSPERRKSLFIHENNEKNDRDRGKTNADSKKQTTVAEADIFNNSSRSLSSRSSLSRHHPEESPLGAKFQLSLASYCRERELKRLRKEQMEQRINSENSFSEASSLSLKSSIERKYKPRQEQRKQNDIIPGKNNLSNVENGHLSRKRSSSDSWEPTSAGSKQNKFPEKRKRNSVDSDLKSTRESMIPKARESFLEKRPDGPHQKEKFIKHIALKTPGDVLRLEDISKEPSDETDGSSAGLAPSNSGNSGHHSTRNSDQIQVAGTKETKMQKPHLPLSQEKSAIKKASNLQKNKTASSTTKEKETKLPLLSRVPSAGSSLVPLNAKNCALPVSKKDKERSSSKECSGHSTESTKHKEHKAKTNKADSNVSSGKISGGPLRSEYGTPTKSPPAALEVVPCIPSPAAPSDKAPSEGESSGNSNAGSSALKRKLRGDFDSDEESLGYNLDSDEEEETLKSLEEIMALNFNQTPAATGKPPALSKGLRSQSSDYTGHVHPGTYTNTLERLVKEMEDTQRLDELQKQLQEDIRQGRGIKSPIRIGEEDSTDDEDGLLEEHKEFLKKFSVTIDAIPDHHPGEEIFNFLNSGKIFNQYTLDLRDSGFIGQSAVEKLILKSGKTDQIFLTTQGFLTSAYHYVQCPVPVLKWLFRMMSVHTDCIVSVQILSTLMEITIRNDTFSDSPVWPWIPSLSDVAAVFFNMGIDFRSLFPLENLQPDFNEDYLVSETQTTSRGKESEDSSYKPIFSTLPETNILNVVKFLGLCTSIHPEGYQDREIMLLILMLFKMSLEKQLKQIPLVDFQSLLINLMKNIRDWNTKVPELCLGINELSSHPHNLLWLVQLVPNWTSRGRQLRQCLSLVIISKLLDEKHEDVPNASNLQVSVLHRYLVQMKPSDLLKKMVLKKKAEQPDGIIDDSLHLELEKQAYYLTYILLHLVGEVSCSHSFSSGQRKHFVLLCGALEKHVKCDIREDARLFYRTKVKDLVARIHGKWQEIIQNCRPTQGQLHDFWVPDS
binding (GFP-SMC5 WT (human)): binds | binding [1]: binds

Next, values leading:

binding [2]: binds
B2: SLF1 (tagged) (protein, UniProt Q9BQI6 1-1058)
chain: MEDGTPKHIIQMTGFKMEEKEALVKLLLKLDCTFIKSEKYKNCTHLIAERLCKSEKFLAACAAGKWILTKDYIIHSAKSGRWLDETTYEWGYKIEKDSRYSPQMQSAPKRWREELKRTGAPGAFHRWKVVLLVRTDKRSDSLIRVLEAGKANVILPKSSPSGITHVIASNARIKAEKEKDNFKAPFYPIQYLGDFLLEKEIQNDEDSQTNSVWTEHSNEETNKDFRKDAGFLEMKGALRETMYRTQKEMQNHEDVNVGSILIQHHKKEKFSGSSKDLKFVKMRNTFGSHTYENQKEIKKKDEDIQRSYTLRRKRKKGKESNCKKGVEHEKIKSTLRRHIYNRDQKEMKNSIFAEYAKESKAMAIKTDVDVVEIKNTLRKHIYRAQAVRYNCIRIDKQPVYNVEVKNAEFPRGVLNLIESLIEGHFFKEAIEELSTLQAHYIPPVCVLHALLENVLQDNIDTFSGRYFHILSALLHLHPPWKSPAMSRYYLELFQCPTCMKGAWSLVEVLIRSCLFNESFCHQISENIGSKVLHLTLLKFFFNLIESEVQHLSQKLYDWSDSQNLKITGKAMLLEIFWSGSETSGLLTKPVNMLLEWTIYSHKEKFKSNDVFKHELAYLLAGILGAAIDYWIFLGLKMGRNVMRHMSDDLGSYVSLSCDDFSSQELEIFICSFSSSWLQMFVAEAVFKKLCLQSSGSVSSEPLSLQKMVYSYLPALGKTGVLGSGKIQVSKKIGQRPCFDSQRTLLMLNGTKQKQVEGLPELLDLNLAKCSSSLKKLKKKSEGELSCSKENCPSVVKKMNFHKTNLKGETALHRACINNQVEKLILLLSLPGIDINVKDNAGWTPLHEACNYGNTVCVQEILQRCPEVDLLTQVDGVTPLHDALSNGHVEIGKLLLQHGGPVLLQQRNAKGELPLDYVVSPQIKEELFAITKIEDTVENFHAQAEKHFHYQQLEFGSFLLSRMLLNFCSIFDLSSEFILASKGLTHLNELLMACKSHKETTSVHTDWLLDLYAGNIKTLQKLPHILKELPENLKVCPGVHTEALMITLEMMCRSVMEFS

binding [2]: binds
B3: SMC6 (in U-2 OS lysate, SLF2 mapping experiment) (protein, UniProt Q96SB8 1-1091)
chain: MAKRKEENFSSPKNAKRPRQEELEDFDKDGDEDECKGTTLTAAEVGIIESIHLKNFMCHSMLGPFKFGSNVNFVVGNNGSGKSAVLTALIVGLGGRAVATNRGSSLKGFVKDGQNSADISITLRNRGDDAFKASVYGNSILIQQHISIDGSRSYKLKSATGSVVSTRKEELIAILDHFNIQVDNPVSVLTQEMSKQFLQSKNEGDKYKFFMKATQLEQMKEDYSYIMETKERTKEQIHQGEERLTELKRQCVEKEERFQSIAGLSTMKTNLESLKHEMAWAVVNEIEKQLNAIRDNIKIGEDRAARLDRKMEEQQVRLNEAEQKYKDIQDKLEKISEETNARAPECMALKADVVAKKRAYNEAEVLYNRSLNEYKALKKDDEQLCKRIEELKKSTDQSLEPERLERQKKISWLKERVKAFQNQENSVNQEIEQFQQAIEKDKEEHGKIKREELDVKHALSYNQRQLKELKDSKTDRLKRFGPNVPALLEAIDDAYRQGHFTYKPVGPLGACIHLRDPELALAIESCLKGLLQAYCCHNHADERVLQALMKRFYLPGTSRPPIIVSEFRNEIYDVRHRAAYHPDFPTVLTALEIDNAVVANSLIDMRGIETVLLIKNNSVARAVMQSQKPPKNCREAFTADGDQVFAGRYYSSENTRPKFLSRDVDSEISDLENEVENKTAQILNLQQHLSALEKDIKHNEELLKRCQLHYKELKMKIRKNISEIRELENIEEHQSVDIATLEDEAQENKSKMKMVEEHMEQQKENMEHLKSLKIEAENKYDAIKFKINQLSELADPLKDELNLADSEVDNQKRGKRHYEEKQKEHLDTLNKKKRELDMKEKELEEKMSQARQICPERIEVEKSASILDKEINRLRQKIQAEHASHGDREEIMRQYQEARETYLDLDSKVRTLKKFIKLLGEIMEHRFKTYQQFRRCLTLRCKLYFDNLLSQRAYCGKMNFDHKNETLSISVQPGEGNKAAFNDMRALSGGERSFSTVCFILSLWSIAESPFRCLDEFDVYMDMVNRRIAMDLILKMADSQRFRQFILLTPQSMSSLPSSKLIRILRMSDPERGQTTLPFRPVTQEEDDDQR
